Test results published in patent publication US20090123907A1 (priority 2004, published 2009).

Test system: plasma proteins
Assay: Protein resistance to glass beads
Conditions: 0.4% sodium citrate, 2% lysine citrate
Text: The above experiment was repeated using glass beads as a denaturing agent. Generally, contact of blood plasma with glass surfaces results in activation or denaturation. […].

Structure (SMILES): O=C([O-])CC(O)(CC(=O)[O-])C(=O)[O-].[Na+].[Na+].[Na+] [Na Citrate, sodium citrate, reference compound]
- appearance of the tubes following glass bead treatment: slightly cloudy

Structure (SMILES): NCCCC[C@H](N)C(=O)O.O=C(O)CC(O)(CC(=O)O)C(=O)O [Lysine Citrate, lysine citrate]
- appearance of the tubes following glass bead treatment: unchanged
